For the assay, the system named is L1210 leukemia ip in BDF1 mice, survival T/C. Kind of assay: NCI In Vivo Anticancer Drug Screen. Data for tumor model L1210 Leukemia (intraperitoneal) in B6D2F1 (BDF1) mice. Conditions: higher T/C = longer survival.
The mark [1] stands for this setting: T/C endpoint: mean survival time, dose: 100.0 mg/kg/injection, schedule: Q01DX009 (ip), vehicle: saline.

The list does not hold the whole screen: it gathers tests that were run many times, whatever their T/C, doses with no T/C, and many T/C values between a quarter and a half above the control. Other doses and runs of a compound stand elsewhere. T/C: endpoint of the treated group in % of that of the vehicle group. Some entries give survivors of the animals treated and no T/C: the source holds a T/C of zero for them, seemingly a mark for toxic or unscored doses. Some survivor counts are full or nearly so, which does not show that the dose was tolerated: survival well below the control is almost never listed, so the zero probably covers shortened survival too. Survivors were counted at the toxicity check, usually on the fifth day, unless a day is given; later deaths do not show. Schedules are NCI's codes, taken here to give the interval after Q, in days (D) or hours (H), and the number of doses after X. Some schedules carry Z or #; the key to these is not given. Where survival is the endpoint, this PubChem deposit counts one and a half times the control or more as active, and values a quarter to a half above the control carry no call in these data; other NCI protocols may use other cut-offs. Signs of the kind (2×) stand for listed records that agree. Some entries were tested several times; their values stand side by side, smallest first. Some T/C values carry the count of animals alive at the toxicity check (mostly the fifth day); without a count, all were alive then.

Take `COc1ccc(C(=O)/C(Br)=C/C(=O)O)cc1`: the survivor count is given as 0 of 6 (T/C endpoint: mean survival time, dose: 75.0 mg/kg/injection, schedule: Q01DX009 (ip), vehicle: saline); 0 of 6 under setting [1]; 0 of 6 (T/C endpoint: mean survival time, dose: 100.0 mg/kg/injection, schedule: Q04DX003 (ip), vehicle: saline); 0 of 6 (T/C endpoint: mean survival time, dose: 115.0 mg/kg/injection, schedule: Q01DX009 (ip), vehicle: saline); 0 of 6 (T/C endpoint: mean survival time, dose: 170.0 mg/kg/injection, schedule: Q01DX009 (ip), vehicle: saline); 0 of 3 (T/C endpoint: mean survival time, dose: 200.0 mg/kg/injection, schedule: Q04DX002 (ip), vehicle: saline). Besides, the survivor count (T/C endpoint: mean survival time, dose: 200.0 mg/kg/injection, schedule: Q04DX003 (ip), vehicle: saline) was 0 of 6; the survivor count (T/C endpoint: mean survival time, dose: 400.0 mg/kg/injection, schedule: Q04DX002 (ip), vehicle: saline) was 0 of 3; the survivor count (T/C endpoint: mean survival time, dose: 400.0 mg/kg/injection, schedule: Q04DX003 (ip), vehicle: saline) is listed as 0 of 6; the survivor count (T/C endpoint: median survival time, dose: 100.0 mg/kg/injection, schedule: Q01DX015 (ip), vehicle: saline) is given as 4 of 8; the survivor count (T/C endpoint: median survival time, dose: 100.0 mg/kg/injection, schedule: Q07DX003 (ip), vehicle: saline) is recorded as 6 of 8. Also, the T/C is, setting by setting: (T/C endpoint: median survival time, dose: 6.3 mg/kg/injection, schedule: Q01DX015 (ip), vehicle: saline, evaluated on day 7) 96 % of control (2×); (T/C endpoint: median survival time, dose: 6.3 mg/kg/injection, schedule: Q01DX015 (ip), vehicle: saline, evaluated on day 34) 96 % of control; (T/C endpoint: median survival time, dose: 6.3 mg/kg/injection, schedule: Q01DX015 (ip), vehicle: saline, evaluated on day 63) 96 % of control [7 of 8 alive]; (T/C endpoint: median survival time, dose: 6.3 mg/kg/injection, schedule: Q07DX003 (ip), vehicle: saline, evaluated on day 7) 94 and 98 % of control; (T/C endpoint: median survival time, dose: 6.3 mg/kg/injection, schedule: Q07DX003 (ip), vehicle: saline, evaluated on day 34) 94 % of control [6 of 8 alive]; (T/C endpoint: median survival time, dose: 6.3 mg/kg/injection, schedule: Q07DX003 (ip), vehicle: saline, evaluated on day 63) 98 % of control. Besides, the T/C reads like this: (T/C endpoint: median survival time, dose: 12.5 mg/kg/injection, schedule: Q01DX015 (ip), vehicle: saline, evaluated on day 7) 97 and 110 % of control; (T/C endpoint: median survival time, dose: 12.5 mg/kg/injection, schedule: Q01DX015 (ip), vehicle: saline, evaluated on day 34) 97 % of control; (T/C endpoint: median survival time, dose: 12.5 mg/kg/injection, schedule: Q01DX015 (ip), vehicle: saline, evaluated on day 63) 110 % of control; (T/C endpoint: median survival time, dose: 12.5 mg/kg/injection, schedule: Q07DX003 (ip), vehicle: saline, evaluated on day 7) 99 and 103 % of control; (T/C endpoint: median survival time, dose: 12.5 mg/kg/injection, schedule: Q07DX003 (ip), vehicle: saline, evaluated on day 34) 103 % of control; (T/C endpoint: median survival time, dose: 12.5 mg/kg/injection, schedule: Q07DX003 (ip), vehicle: saline, evaluated on day 63) 100 % of control. Also, the T/C is, setting by setting: (T/C endpoint: median survival time, dose: 25.0 mg/kg/injection, schedule: Q01DX015 (ip), vehicle: saline, evaluated on day 7) 101 and 113 % of control; (T/C endpoint: median survival time, dose: 25.0 mg/kg/injection, schedule: Q01DX015 (ip), vehicle: saline, evaluated on day 34) 101 % of control [7 of 8 alive]; (T/C endpoint: median survival time, dose: 25.0 mg/kg/injection, schedule: Q01DX015 (ip), vehicle: saline, evaluated on day 63) 113 % of control; (T/C endpoint: median survival time, dose: 25.0 mg/kg/injection, schedule: Q07DX003 (ip), vehicle: saline, evaluated on day 7) 97 % of control (2×); (T/C endpoint: median survival time, dose: 25.0 mg/kg/injection, schedule: Q07DX003 (ip), vehicle: saline, evaluated on day 34) 97 % of control; (T/C endpoint: median survival time, dose: 25.0 mg/kg/injection, schedule: Q07DX003 (ip), vehicle: saline, evaluated on day 63) 97 % of control [7 of 8 alive]. For the same molecule, the T/C was 101 % of control (2×) (T/C endpoint: median survival time, dose: 50.0 mg/kg/injection, schedule: Q01DX015 (ip), vehicle: saline, evaluated on day 7); 101 % of control [7 of 8 alive] (T/C endpoint: median survival time, dose: 50.0 mg/kg/injection, schedule: Q01DX015 (ip), vehicle: saline, evaluated on day 34); 101 % of control (T/C endpoint: median survival time, dose: 50.0 mg/kg/injection, schedule: Q01DX015 (ip), vehicle: saline, evaluated on day 63); 97 and 102 % of control (T/C endpoint: median survival time, dose: 50.0 mg/kg/injection, schedule: Q07DX003 (ip), vehicle: saline, evaluated on day 7); 97 % of control (T/C endpoint: median survival time, dose: 50.0 mg/kg/injection, schedule: Q07DX003 (ip), vehicle: saline, evaluated on day 34); 102 % of control [6 of 8 alive] (T/C endpoint: median survival time, dose: 50.0 mg/kg/injection, schedule: Q07DX003 (ip), vehicle: saline, evaluated on day 63). The T/C by setting is: (T/C endpoint: median survival time, dose: 100.0 mg/kg/injection, schedule: Q01DX015 (ip), vehicle: saline, evaluated on day 7) 80 and 96 % of control; (T/C endpoint: median survival time, dose: 100.0 mg/kg/injection, schedule: Q01DX015 (ip), vehicle: saline, evaluated on day 63) 96 % of control [6 of 8 alive]; (T/C endpoint: median survival time, dose: 100.0 mg/kg/injection, schedule: Q07DX003 (ip), vehicle: saline, evaluated on day 7) 83 and 98 % of control; (T/C endpoint: median survival time, dose: 100.0 mg/kg/injection, schedule: Q07DX003 (ip), vehicle: saline, evaluated on day 63) 98 % of control [6 of 8 alive].

As for `O=C(O)CCc1nn(-c2ccccc2)c(=O)c2ccccc12`, under “T/C endpoint: mean survival time, dose: 400.0 mg/kg/injection, schedule: Q04DX002 (ip), vehicle: Klucel (hydroxypropylcellulose) (HPC)”, the survivor count is reported as 3 of 3.

In the case of `Nc1nc(C=O)c(CCc2ccccc2)c(=O)[nH]1`, for the setting “T/C endpoint: mean survival time, dose: 400.0 mg/kg/injection, schedule: Q04DX003 (ip), vehicle: saline with Tween-80”, the survivor count was 1 of 6.

Consider `CC(C)(C)c1cccc(Cl)c1O`, for which the survivor count is, setting by setting: (T/C endpoint: mean survival time, dose: 200.0 mg/kg/injection, schedule: Q01DX009 (ip), vehicle: saline with Tween-80) 3 of 6; (T/C endpoint: mean survival time, dose: 400.0 mg/kg/injection, schedule: Q01DX009 (ip), vehicle: saline with Tween-80) 0 of 6.

As to `S=C(N=Nc1ccccc1)NNc1ccccc1`, the survivor count is given as 4 of 6 (T/C endpoint: mean survival time, dose: 150.0 mg/kg/injection, schedule: Q01DX009 (ip), vehicle: saline with Tween-80); 5 of 6 (T/C endpoint: mean survival time, dose: 150.0 mg/kg/injection, schedule: Q01DX Z (ip), vehicle: carboxymethylcellulose (CMC)); 0 of 6 (T/C endpoint: mean survival time, dose: 300.0 mg/kg/injection, schedule: Q01DX Z (ip), vehicle: carboxymethylcellulose (CMC)); 0 of 6 (T/C endpoint: mean survival time, dose: 400.0 mg/kg/injection, schedule: Q01DX001 (ip), vehicle: carboxymethylcellulose (CMC)); 3 of 6 (T/C endpoint: mean survival time, dose: 800.0 mg/kg/injection, schedule: Q01DX001 (ip), vehicle: carboxymethylcellulose (CMC)).

For `CCSc1ncnc2c1ncn2CN1CCOCC1`, the T/C is, setting by setting: (T/C endpoint: mean survival time, dose: 30.0 mg/kg/injection, schedule: Q01DX009 (ip), vehicle: saline) 144 % of control; (T/C endpoint: mean survival time, dose: 60.0 mg/kg/injection, schedule: Q01DX009 (ip), vehicle: saline) 141 % of control; (T/C endpoint: mean survival time, dose: 88.0 mg/kg/injection, schedule: Q01DX009 (ip), vehicle: Klucel (hydroxypropylcellulose) (HPC)) 125 % of control; under setting [1], 127 and 148 % of control; (T/C endpoint: mean survival time, dose: 133.0 mg/kg/injection, schedule: Q01DX009 (ip), vehicle: Klucel (hydroxypropylcellulose) (HPC)) 146 % of control; (T/C endpoint: mean survival time, dose: 150.0 mg/kg/injection, schedule: Q01DX009 (ip), vehicle: saline) 126 % of control. In addition, the T/C (T/C endpoint: mean survival time, dose: 225.0 mg/kg/injection, schedule: Q01DX009 (ip), vehicle: saline) was 142 % of control [5 of 6 alive]; the T/C (T/C endpoint: mean survival time, dose: 330.0 mg/kg/injection, schedule: Q04DX003 (ip), vehicle: saline) is 134 % of control; the T/C (T/C endpoint: mean survival time, dose: 337.5 mg/kg/injection, schedule: Q01DX009 (ip), vehicle: saline) is 132 % of control. Also, the survivor count is, setting by setting: (T/C endpoint: mean survival time, dose: 300.0 mg/kg/injection, schedule: Q01DX009 (ip), vehicle: Klucel (hydroxypropylcellulose) (HPC)) 1 of 6; (T/C endpoint: mean survival time, dose: 340.0 mg/kg/injection, schedule: Q01DX009 (ip), vehicle: saline) 1 of 6; (T/C endpoint: mean survival time, dose: 400.0 mg/kg/injection, schedule: Q04DX003 (ip), vehicle: Klucel (hydroxypropylcellulose) (HPC)) 0 of 6; (T/C endpoint: mean survival time, dose: 500.0 mg/kg/injection, schedule: Q01DX009 (ip), vehicle: saline) 3 of 6.
